Results reported in US9896487B2, “Amyloidosis-inhibiting polypeptides and their use” (UNIVERSITY OF WASHINGTON THROUGH ITS CENTER FOR …, priority 2013, dated 2018).
“Also recorded” adds a separate entry of the source. Like-named read-outs stand apart in the source and are kept apart here.

Experiment: Secondary structure by CD and FTIR spectroscopy

Substance	Contains α-sheet Structure?	other results
Ac-AQQiEcItNVWDKEItMyFnVSE-NH2 (AQQIECLTNVWDKELTMYFNVSE; D-residues) [peptide #11]	form α-sheet and yes	Contains α-sheet Structure? (listed as Control 3): adopt α-sheet structure
Ac-MNWESkGEwIRMRYGtmLSNGnM-NH2 (MNWESKGEWLRMRYGTMLSNGNM; D-residues) [peptide #19]	do not and no	Contains α-sheet Structure? (listed as Control2): does not form α-sheet
Ac-RGEaWmYiKNNLSETmMsNmWGR-NH2 [peptide #12]	form α-sheet and yes	Contains α-sheet Structure? (listed as Control6): forms α-sheet; also recorded: α-sheet structure
Ac-RGEMNLSWMNEYSGWTMNLKMGR-NH2 [peptide #20]	do not and no	Contains α-sheet Structure? (listed as llas90): does not form α-sheet
Ac-WRPwAiDgMNTBKQRkAsVyLQP-NH2 (WRPWAIDQMNTVKQRKASVYLQP; D-residues) [peptide #13]	form α-sheet and yes	Contains α-sheet Structure? (listed as Control 4): adopt α-sheet structure
Ac-RGNwNeSkMNEYSGWmLmLtMGR-NH2 (RGNWNESKMNEYSGWMLMLTMGR; D-residues) [peptide #6]	form α-sheet and yes	Contains α-sheet Structure? (listed as Control5): adopts α-sheet structure
Ac-RGEmNiSwMNEYSGWtMnLkMGR-NH2 [peptide #1]	adopt α-sheet structure and form α-sheet and yes	–
RGEmNlSwMNEYSGWtMnLkMGR [peptide #7]	adopt α-sheet structure	–
